{"source": "patent US12059418B2", "about": "“Plasmodial surface anion channel inhibitors for the treatment or prevention of malaria” (The United States of America, as represented by the …, priority 2011, dated 2024)", "key": {"PSAC": {"tested_on": "PSAC", "assay": "Transport inhibition assay, osmotic lysis of infected cells in sorbitol (Table 5)", "assay_type": "cell-based, P. falciparum", "details": "37° C., read-out: Transport inhibition K0.5"}, "P. falciparum": {"tested_on": "P. falciparum", "assay_type": "cell-based", "details": "RPMI growth IC50 / PLM growth IC50"}}, "data": [{"compound": "NS(=O)(=O)c1cc(C(=O)O)c(NCc2ccco2)cc1Cl", "note": "[furosemide, reference compound]", "values": [{"measurement": "IC50", "setting": "PSAC", "result": 2.7, "unit": "µM"}, {"measurement": "IC50 ratio", "setting": "P. falciparum", "result": ">9.5"}]}]}
